According to article PMC10508264, “Exploring the antioxidant, antimicrobial, cytotoxic and biothermodynamic properties of novel morpholine derivative bioactive Mn(II), Co(II) and Ni(II) complexes – combined experimental and theoretical measurements towards DNA/BSA/SARS-CoV-2 3CL^Pro” (RSC Medicinal Chemistry, 2023):

Tested on: CT-DNA
Assay: DNA binding by UV-vis absorption titration
Conditions: for Gibbs free energy change of DNA binding, BH-I / Gibbs free energy change of DNA binding, BH-II / Gibbs free energy change of DNA binding, SK-I / Gibbs free energy change of DNA binding, SK-II / Gibbs free energy change of DNA binding, WS-I / Gibbs free energy change of DNA binding, WS-II: T = 298 K; for Δλ nm (red shift on DNA binding): Tris-HCl pH 7.4, 25 °C
Protocol: The DNA-binding experiment was conducted with an electronic absorption spectrophotometer by raising the DNA concentration from zero to 50 μM to the given concentration of all samples (50 μM) in Tris-HCl buffer (5 mM Tris-HCl/50 mM NaCl) with a pH of 7.4 at 25 °C.[13,23–26]
Most medications involve intercalation and groove binding via GC (guanine/cytosine)-rich and AT (adenine/thymine)-rich domains, respectively. The interactions were determined experimentally by electronic absorption spectrum titration. Moreover, intercalating binding is indicated by bathochromic and hypochromic shifts in the absorption spectra, whereas groove binding of the complexes with DNA is indicated by hyperchromic shifts in the titration curve.[61] Generally, four kinds of non-covalent engagements that can be absolutely critical in the interaction of substances with DNA are most frequently illustrated in the literature: (i) involves a negatively charged phosphate fragment as a result of electrostatic interaction; (ii) influences weak van der Waals force attraction/H-bonding; (iii) interaction of a functional moiety with the grooves (major/minor) of the double-stranded DNA as a result of a molecule sticking due to general attraction, or as a result of water or H-bonding expulsion, etc.; (iv) the stacked base pairs of natural DNA are intercalated by hydrophobic forces. Nevertheless, substances are engaged in the reaction because of […] preferred N-7 position and adenine's N-3 location in DNA. The DNA base pairing may also be prevented due to miscoding. All complexes (1–3), including free ligand (HL), were measured both when DNA was present and when it was absent using ultraviolet–visible spectrophotometric absorption titrations in buffer solution with a pH of 7.4 at 25 °C (Fig. 3). In this case, all substances were exposed to two prominent electronic absorption bands of about 260 nm and 335–343 nm, consequent to the π–π* transitions of the phenyl chromophore and MLCT, respectively. While the amount of DNA in each compound rises, the interaction of the chemical substance with DNA base pairs generates noticeable alterations in the strength and wavelength of the intra-ligand charge transfer bands. […] Using Wolfe–Shimmer eqn (1) and (2), Benesi–Hildebrand eqn (3) and (4) and Sakthi–Krause eqn (5) and (6), the observed overall Kb values for all samples were in the following sequence: (2) > (3) > (1) > (HL). […] It is concluded that the co-planarity of the morpholine-linked ligand and complexation of the 2,2′-bipyridine aromatic system with the metal centre promote the ability of the complex to infiltrate DNA base pairs smoothly. Large aromatic systems may also assist the complex to deeply penetrate the core of the phosphate backbone, and those substances may permit the complex to freely penetrate deep into the DNA base pairs. […] The Wolfe–Shimmer eqn (1) and (2),[62] Benesi–Hildebrand eqn (3) and (4),[63] and Sakthi–Krause eqn (5) and (6) were applied to evaluate the Kb results for all samples, which were obtained by modification of the Lineweaver–Burk and Stern–Volmer equations (Table 1).
The Kb values were measured using the Wolfe–Shimmer eqn (1) and (2) from the linear regression plots of [DNA]/(εa − εf) vs. [DNA] M^−1 for method I and (εb − εf)/(εa − εf) vs. 1/[DNA] M^−1 for method II, respectively (Fig. S15 ^†). The Benesi–Hildebrand binding constant (Kb) values were measured using eqn (3) and (4) from the linear regression plots of [1/(Ax − A0)] vs. {1/[DNA]} M^−1 for method I and [(Amax − A0)/(Ax − A0)] vs. {1/[DNA]} M^−1 for method II, respectively (Fig. S16 ^†). The Kb values were estimated using Sakthi–Krause eqn (5) and (6) from the linear regression plots of [A/(A0 − A)] vs. {1/[DNA]} M^−1 for method I (Fig. S17 ^†) and {1/[DNA]} vs. log[A/(A0 − A)] M^−1 for method II (Fig. S18 ^†). In addition, A0 and A represent the absorbance intensity values in the absence and presence of [DNA], respectively. […]

| Structure (SMILES) | Gibbs free energy change of DNA binding, BH-I | Gibbs free energy change of DNA binding, BH-II | Gibbs free energy change of DNA binding, SK-I | Gibbs free energy change of DNA binding, SK-II | Gibbs free energy change of DNA binding, WS-I | Gibbs free energy change of DNA binding, WS-II | Δλ nm (red shift on DNA binding) |
| --- | --- | --- | --- | --- | --- | --- | --- |
| [Mn+2].[O-]c1ccccc1N=Cc1ccc(N2CCOCC2)cc1.[O-]c1ccccc1N=Cc1ccc(N2CCOCC2)cc1.c1ccc(-c2ccccn2)nc1 [(1)] | -5.449 kcal/mol | -5.896 kcal/mol | -5.514 kcal/mol | -5.875 kcal/mol | -5.808 kcal/mol | -5.889 kcal/mol | 04 nm |
| [Co+2].[O-]c1ccccc1N=Cc1ccc(N2CCOCC2)cc1.[O-]c1ccccc1N=Cc1ccc(N2CCOCC2)cc1.c1ccc(-c2ccccn2)nc1 [(2)] | -5.48 kcal/mol | -5.908 kcal/mol | -5.693 kcal/mol | -5.935 kcal/mol | -5.827 kcal/mol | -5.903 kcal/mol | 04 nm |
| [Ni+2].[O-]c1ccccc1N=Cc1ccc(N2CCOCC2)cc1.[O-]c1ccccc1N=Cc1ccc(N2CCOCC2)cc1.c1ccc(-c2ccccn2)nc1 [(3)] | -5.808 kcal/mol | -5.891 kcal/mol | -5.609 kcal/mol | -5.877 kcal/mol | -5.808 kcal/mol | -5.901 kcal/mol | 05 nm |
| Oc1ccccc1N=Cc1ccc(N2CCOCC2)cc1 [(HL), 2-(4-morpholinobenzylideneamino)phenol] | -5.151 kcal/mol | -5.851 kcal/mol | -5.378 kcal/mol | -5.779 kcal/mol | -5.7 kcal/mol | -5.712 kcal/mol | 04 nm |
